This is an account of results in publication PMC11743126.

Sequences of proteins named here, by UniProt entry; tags and fusion partners are left off.
UniProt P46937: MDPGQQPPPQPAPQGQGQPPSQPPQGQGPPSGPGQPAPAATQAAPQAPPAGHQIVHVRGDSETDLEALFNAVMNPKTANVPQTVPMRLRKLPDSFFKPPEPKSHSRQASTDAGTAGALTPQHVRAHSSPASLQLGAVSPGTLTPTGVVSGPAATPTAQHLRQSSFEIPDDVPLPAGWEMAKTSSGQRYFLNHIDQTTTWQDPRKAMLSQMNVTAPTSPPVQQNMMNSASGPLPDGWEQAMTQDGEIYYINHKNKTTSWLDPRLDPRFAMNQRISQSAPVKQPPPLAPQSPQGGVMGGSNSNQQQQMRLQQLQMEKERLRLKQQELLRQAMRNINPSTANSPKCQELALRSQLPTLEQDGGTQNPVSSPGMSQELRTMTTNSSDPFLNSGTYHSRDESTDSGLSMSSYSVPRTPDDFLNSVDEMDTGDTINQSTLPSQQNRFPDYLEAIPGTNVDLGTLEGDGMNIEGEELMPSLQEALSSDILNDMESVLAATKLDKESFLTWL

No constants are given. Whether binding was seen depends on the method and setting. In cells and extracts the contact can be indirect. A yes stands for co-enrichment or nearness to the bait. Other partners may have been found.

The test concerns the target Flag-YAP1 (UniProt P46937). Nature of the test: affinity purification with mass spectrometry; tandem affinity purification of Flag-YAP1 from A2780 cells; mass spectrometry of the YAP1 immunoprecipitates.

B1: DUB3 (USP17L2), endogenous (enzyme, UniProt Q6R6M4 1-530)
chain: MEDDSLYLGGEWQFNHFSKLTSSRPDAAFAEIQRTSLPEKSPLSSEARVDLCDDLAPVARQLAPRKKLPLSSRRPAAVGAGLQNMGNTCYENASLQCLTYTPPLANYMLSREHSQTCQRPKCCMLCTMQAHITWALHSPGHVIQPSQALAAGFHRGKQEDAHEFLMFTVDAMKKACLPGHKQVDHHSKDTTLIHQIFGGCWRSQIKCLHCHGISDTFDPYLDIALDIQAAQSVKQALEQLVKPEELNGENAYHCGLCLQRAPASKTLTLHTSAKVLILVLKRFSDVTGNKLAKNVQYPECLDMQPYMSQQNTGPLVYVLYAVLVHAGWSCHDGHYFSYVKAQEGQWYKMDDAKVTACSITSVLSQQAYVLFYIQKSEWERHSESVSRGREPRALGAEDTDRRATQGELKRDHPCLQAPELDERLVERATQESTLDHWKFPQEQNKTKPEFNVRKVEGTLPPNVLVIHQSKYKCGMKNHHPEQQSSLLNLSSTTRTDQESVNTGTLASLQGRTRRSKGKNKHSKRALLVCQ
In the case of B1, the binding result is reported as “binds”.
